{"sequences": {"note": "Sequences of proteins named here, by UniProt entry; tags and fusion partners are left off.", "UniProt P55258": "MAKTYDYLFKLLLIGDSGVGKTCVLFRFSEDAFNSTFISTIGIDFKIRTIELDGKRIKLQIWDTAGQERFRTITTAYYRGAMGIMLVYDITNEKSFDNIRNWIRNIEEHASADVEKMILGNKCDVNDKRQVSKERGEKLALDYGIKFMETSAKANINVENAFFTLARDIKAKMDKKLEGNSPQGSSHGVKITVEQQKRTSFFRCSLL", "UniProt Q3TN34": "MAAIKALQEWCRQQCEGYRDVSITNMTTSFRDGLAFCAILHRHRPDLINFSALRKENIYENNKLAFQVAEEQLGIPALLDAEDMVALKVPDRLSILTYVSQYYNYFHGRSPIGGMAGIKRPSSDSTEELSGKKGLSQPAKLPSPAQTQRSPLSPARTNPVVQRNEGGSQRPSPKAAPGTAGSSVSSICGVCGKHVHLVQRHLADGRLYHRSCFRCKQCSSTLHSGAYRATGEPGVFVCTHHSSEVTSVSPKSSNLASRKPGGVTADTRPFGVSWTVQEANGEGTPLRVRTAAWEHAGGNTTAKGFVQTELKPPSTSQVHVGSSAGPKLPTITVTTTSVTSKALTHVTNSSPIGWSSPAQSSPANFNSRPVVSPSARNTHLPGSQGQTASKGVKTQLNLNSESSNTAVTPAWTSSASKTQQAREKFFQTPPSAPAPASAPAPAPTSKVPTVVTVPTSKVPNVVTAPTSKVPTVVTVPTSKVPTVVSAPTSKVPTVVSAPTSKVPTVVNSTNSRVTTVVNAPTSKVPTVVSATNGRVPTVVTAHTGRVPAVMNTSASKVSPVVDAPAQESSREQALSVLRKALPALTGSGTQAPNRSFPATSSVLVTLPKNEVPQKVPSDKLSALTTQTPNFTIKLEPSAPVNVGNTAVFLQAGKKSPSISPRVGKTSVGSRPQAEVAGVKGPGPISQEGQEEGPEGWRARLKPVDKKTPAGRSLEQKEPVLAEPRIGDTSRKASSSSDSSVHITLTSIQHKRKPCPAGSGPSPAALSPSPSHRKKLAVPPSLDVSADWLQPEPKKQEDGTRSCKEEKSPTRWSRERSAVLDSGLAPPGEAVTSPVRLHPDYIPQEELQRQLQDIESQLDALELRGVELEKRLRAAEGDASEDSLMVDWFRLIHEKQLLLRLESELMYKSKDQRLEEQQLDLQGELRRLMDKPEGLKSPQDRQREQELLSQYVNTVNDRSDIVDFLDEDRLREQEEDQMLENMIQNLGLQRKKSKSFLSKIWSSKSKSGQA"}, "source": "paper PMC13324726", "target": "RAB8A, endogenous in BV2 cells (mouse (endogenous in BV2)) (UniProt P55258)", "experiment": "affinity purification with mass spectrometry; WT and dKO BV2 cells treated with 1 mM LLOMe 30 min, Dounce homogenised; lysates incubated with anti-RAB8A antibody and Protein A/G beads; washed in 20 mM Tris-HCl pH 7.4, 150 mM NaCl, 0.5% NP-40", "note": "No constants are given. Whether binding was seen depends on the method and setting. Binding seen in cells or lysates may run through a third protein. These calls come from enrichment with a bait or labelling near it, and not all partners need be listed.", "data": [{"substance": "MICALL2, endogenous in BV2 cells (from UniProt Q3TN34 1-1009)", "values": [{"measurement": "binding", "result": "binds"}]}]}
